Results on 9 substances are retold here after paper PMC6146376 (Chemical Communications (Cambridge, England), 2018).

This series is described as follows: general procedure: Fmoc solid-phase peptide synthesis; 2-chlorotrityl (2CT) resin preloaded with Ala (0.6 mmol/g); HATU/DIPEA. The settings on record: whole synthesis, overall, scale of the general procedure 0.1 mmol.

Strings that start with PEPTIDE1 are HELM notation: dots part the residues, brackets hold end groups and non-standard residues.

The substance Oct-TriA1 (5-D-Agl, 9-Agl) displayed an isolated yield of 6%.
To “PEPTIDE1{[Oct].[dV].[D-Dab].G.[dS].[D-Sac].S.[Dab].[D-Dab].[Sac].E.V.[D-aIle].A}$$$$V2.0” belongs 4%; to “PEPTIDE1{[Oct].[dV].[D-Dab].G.[dS].[dC].S.[Dab].[D-Dab].C.E.V.[D-aIle].A}$$$$V2.0”, 18%.
Take “PEPTIDE1{[Oct].[dV].[D-Dab].G.[dS].[dC].S.[Dab].[D-Dab].C.E.V.[D-aIle].A}$PEPTIDE1,PEPTIDE1,6:R3-10:R3$$$V2.0”: the isolated yield is reported as 6%.
Consider “PEPTIDE1{[Oct].[dV].[D-Dab].G.[dS].[dC].S.[Dab].[D-Dab].C.E.V.[D-aIle].A}|CHEM1{[Biphenyl44]}$PEPTIDE1,CHEM1,6:R3-1:R1|PEPTIDE1,CHEM1,10:R3-1:R2$$$V2.0”, for which the isolated yield is given as 5%.
In the case of “PEPTIDE1{[Oct].[dV].[D-Dab].G.[dS].[dC].S.[Dab].[D-Dab].C.E.V.[D-aIle].A}|CHEM1{[mXyl]}$PEPTIDE1,CHEM1,6:R3-1:R1|PEPTIDE1,CHEM1,10:R3-1:R2$$$V2.0”, the isolated yield stood at 50%.
For “PEPTIDE1{[Oct].[dV].[D-Dab].G.[dS].[dC].S.[Dab].[D-Dab].C.E.V.[D-aIle].A}|CHEM1{[oXyl]}$PEPTIDE1,CHEM1,6:R3-1:R1|PEPTIDE1,CHEM1,10:R3-1:R2$$$V2.0” the value was 14%; for “PEPTIDE1{[Oct].[dV].[D-Dab].G.[dS].[dC].S.[Dab].[D-Dab].C.E.V.[D-aIle].A}|CHEM1{[pXyl]}$PEPTIDE1,CHEM1,6:R3-1:R1|PEPTIDE1,CHEM1,10:R3-1:R2$$$V2.0”, 23%.
As to “PEPTIDE1{[Oct].[dV].[D-Dab].G.[dS].[dW].S.[Dab].[D-Dab].F.E.V.[D-aIle].A}$$$$V2.0”, the isolated yield came to 11%.
